Reference: PubChem BioAssay AID504648 (National Center for Advancing Translational Sciences (NCATS), 2011)
Among all 390,000 compounds or so, about 610 (0.16%) were called active. Inconclusive means that the source gave no clear call. Such entries were picked first, then a sample of the others. The call rests on the fitted dose curve; in most records, active means well fitted inhibition curve with a large enough effect; inconclusive means small, poorly fitted or top-dose-only effect, or effect the other way, or another doubt; inactive means no such curve, though single readings can be large or run the other way. Potencies beside an inconclusive call are fits to weak or partial responses and may not hold up.

test: Nrf2 qHTS screen for inhibitors: counterscreen for cytotoxicity; conditions: A549 ARE-Fluc cells, CellTiter-Fluor viability, 18-24 h; series mostly up to 46 µM
Method in brief: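 Cytotoxicity counterscreen: CellTiter-Fluor fluorescence was measured in A549 ARE_Fluc cells after 18-24 h of compound exposure in a concentration series. The subsequent BugLite luminescent read reports ARE-luciferase activity.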
Potency means the concentration at half of the fitted maximal effect.

For `O=C(NCC1CCCO1)c1cc2c([nH]c3ccccc32)c(-c2ccc(F)cc2)n1` (centres undefined), which Potency is on record?
Its Potency is inconclusive: 16.4 µM [falling, single point].

For `CCOc1cc(/C=C2/NC(=S)NC2=O)ccc1OCc1ccc([N+](=O)[O-])cc1`, which Potency is on record?
Its Potency is inconclusive: 20.6 µM [falling, single point].

For `Cc1cccc2c(=O)cc(C)n(CC(=O)N3CCCCC3)c12`, which Potency is on record?
Its Potency is inconclusive: 8.2 µM [activator, partial curve, poor fit].

For `N/C(CCS(=O)(=O)c1ccc(Cl)cc1)=N\OC(=O)c1ccccc1C(F)(F)F`, which Potency is on record?
The Potency was inconclusive: 16.4 µM [falling, single point].

With `CCOC(=O)C1=C(C)NC2=C(C(=O)c3ccccc32)C1c1ccc([N+](=O)[O-])o1` (centres undefined) as the molecule, how does the Potency read?
The Potency was “inactive”.

For `Cc1ccccc1C(=O)c1cccn1CC(=O)NCCN1CCN(c2cccc(C)c2C)CC1`, which Potency is on record?
Its Potency is inconclusive: 23.1 µM [falling, single point].

With `CCOc1ccc(NS(=O)(=O)c2ccc(C(=O)N3CCCCCC3)cc2)cc1` as the molecule, how does the Potency read?
Its Potency is “inactive”.

With `COc1ccc(NC(=O)N(C)C[C@H]2Oc3c(NC(=O)c4nc5ccccc5s4)cccc3C(=O)N([C@@H](C)CO)C[C@H]2C)cc1` as the molecule, how does the Potency read?
Its Potency is “inactive”.

With `COc1cc(OC)cc(C(=O)Nc2nc(-c3nnn(-c4ccc(F)c(Cl)c4)c3C)ns2)c1` as the molecule, how does the Potency read?
Its Potency is inconclusive: 29.1 µM [falling, single point].

Which Potency does the source give for `CCc1ccc(NC(=O)CSc2nc(NS(=O)(=O)c3ccccc3)cc(=O)[nH]2)cc1` here?
Its Potency is inconclusive: 32.6 µM [falling, partial curve, poor fit].

For `COc1ccc(/C=N/NC(=O)CCCC(=O)NC2CCCCC2)cc1`, which Potency is on record?
Its Potency is inconclusive: 25.9 µM [activator, single point].

Which Potency does the source give for `COc1cc(Br)cc(/C=N/NC(=O)Cc2ccc(C(F)(F)F)cc2[N+](=O)[O-])c1O` here?
Its Potency is inconclusive: 29.1 µM [falling, single point].

Which Potency does the source give for `CCC[C@H]1NC(=O)[C@H](C)N(C)C(=O)C(C)(C)C(=O)C(C)NC(=O)[C@H](Cc2ccc(OC)cc2)N(C)C(=O)[C@H](C(C)C)N(C)C(=O)CNC(=O)[C@H](CC(C)C)N(C)C(=O)CNC(=O)[C@H]([C@@H](C)CC)OC(=O)[C@H]1C` (some centres undefined) here?
Its Potency is active: 1.46 µM.

With `Cc1cccc(C(=O)Nc2sc3c(c2C(=O)O)CCCC3)c1` as the molecule, how does the Potency read?
Its Potency is inconclusive: 7.31 µM [falling, partial curve, poor fit].

With `Cc1ccc(CNC(=O)c2cnn(-c3ccc(F)cc3F)c2C2CCN(C(=O)OC(C)(C)C)CC2)cc1` as the molecule, how does the Potency read?
The Potency was inconclusive: 25.9 µM [falling, partial curve, poor fit].

Which Potency does the source give for `N/C(COc1ccc(Cl)cc1Cl)=N\O` here?
Its Potency is inconclusive: 5.8 µM [activator, single point].

With `Cc1ccccc1NC1=C(Cl)C(=O)OC1OC(=O)c1ccccc1C` (centres undefined) as the molecule, how does the Potency read?
Its Potency is inconclusive: 16.4 µM [falling, partial curve, poor fit].

Which Potency does the source give for `COc1cc(Cl)c(NC(=O)CN(C)S(=O)(=O)c2ccc3[nH]c4c(c3c2)CCCC4)c(OC)c1` here?
The Potency was “inactive”.

For `O=C(COc1ccc(Cl)cc1Cl)N/N=C/c1ccc[nH]1`, which Potency is on record?
Its Potency is inconclusive: 11.6 µM [falling, partial curve, poor fit].

Which Potency does the source give for `OCCC1CN(Cc2cnc(-c3ccccc3)s2)CCN1C1CCCCC1` (centres undefined) here?
The Potency was inconclusive: 25.9 µM [falling, partial curve, poor fit].

With `COc1cc(/C=C(\C#N)C(=O)c2ccc(O)c(O)c2)cc(I)c1O` as the molecule, how does the Potency read?
Its Potency is “inactive”.

With `CSc1ccc(NC(=O)NCCN2CCc3ccccc3C2)cc1` as the molecule, how does the Potency read?
The Potency was inconclusive: 32.6 µM [falling, partial curve, poor fit].

For `Cc1csc2nc(-c3cccc(NC(=O)c4ccccc4F)c3)cn12`, which Potency is on record?
Its Potency is “inactive”.

Which Potency does the source give for `CCn1ccnc1CN(C)Cc1cn(-c2cc(C)ccc2C)nc1-c1ccccc1` here?
The Potency was inconclusive: 23.1 µM [falling, single point].

Which Potency does the source give for `O=C(NCCc1ccc(Cl)cc1)c1ccc(CS(=O)Cc2ccc(Cl)cc2)o1` (centres undefined) here?
The Potency was inconclusive: 18.4 µM [falling, partial curve, poor fit].

For `Cc1ccc(-c2cc(C(=O)O)c3sc(N4CCCCC4)nc3n2)cc1`, which Potency is on record?
Its Potency is “inactive”.

Which Potency does the source give for `CC12CCC(=O)N1c1c(sc3nc(N4CCOCC4)c4c(c13)CCCC4)C(=O)N2` (centres undefined) here?
The Potency was “inactive”.

With `O=C1CCCC(O)=C1Sc1cc(Cl)c(Cl)cc1Cl` as the molecule, how does the Potency read?
The Potency was “inactive”.

For `O=[N+]([O-])c1ccc(NC(=S)NCCc2ccc(F)cc2)cc1`, which Potency is on record?
Its Potency is inconclusive: 29.1 µM [falling, single point].

With `Cc1cc(O)c(C)c(O)c1/C=N/NC(=O)c1cccnc1` as the molecule, how does the Potency read?
The Potency was “inactive”.

With `O=C(CNC(=O)c1ccccc1)N/N=C/c1ccc([N+](=O)[O-])s1` as the molecule, how does the Potency read?
Its Potency is inconclusive: 20.6 µM [falling, single point].

For `CC(C)(C)c1ccc(S(=O)(=O)N2CCC(c3ccncc3)CC2)cc1`, which Potency is on record?
The Potency was inconclusive: 29.1 µM [falling, single point].

With `CC(C)n1ncc2c(C(=O)Nc3cccc(C#N)c3)cc(C3CC3)nc21` as the molecule, how does the Potency read?
Its Potency is inconclusive: 29.1 µM [falling, partial curve, poor fit].

With `Cc1cc(C)c(NC(=O)c2ccc(CN3CCc4ccccc4C3)cc2)c(C)c1` as the molecule, how does the Potency read?
The Potency was inconclusive: 32.6 µM [falling, partial curve, poor fit].

For `CC(C)C[C@@H]1NC(=O)[C@H](Cc2ccccc2)N(C)C(=O)[C@H](C)NC(=O)c2ccccc2NC(=O)[C@H](Cc2ccc(O)cc2)N(C)C1=O`, which Potency is on record?
Its Potency is inconclusive: 20.6 µM [falling, partial curve, poor fit].

For `CC(C)c1ccc(NC(=O)c2cc3c(=O)oc4ccccc4c3s2)cc1`, which Potency is on record?
Its Potency is “inactive”.

With `Cc1cccc(NC(=O)CSc2nc3ccccc3c3nc(CCn4cncc4C)nn23)c1` as the molecule, how does the Potency read?
The Potency was inconclusive: 29.1 µM [falling, single point].

For `C[C@H](CO)N1C[C@H](C)[C@@H](CN(C)C(=O)NC2CCCCC2)Oc2ccc(NC(=O)Nc3ccc(C(F)(F)F)cc3)cc2C1=O`, which Potency is on record?
The Potency was inconclusive: 32.6 µM [falling, partial curve, poor fit].

For `CCCC1C2CN(C(C)C)CC=C2C(C#N)=C(N)C1(C#N)C#N` (centres undefined), which Potency is on record?
Its Potency is inconclusive: 10.3 µM [falling, partial curve].

Which Potency does the source give for `Cc1ccc(Cl)cc1N1CCN(C(=O)C(C)n2ncn3cccc3c2=O)CC1` (centres undefined) here?
Its Potency is inconclusive: 20.6 µM [falling, single point].

For `CC(C)n1cc(/C=C/c2cc[n+](C)cc2)c2ccccc21`, which Potency is on record?
Its Potency is inconclusive: 16.4 µM [falling, partial curve, poor fit].

With `CCN(CCNC(=O)C1CCCN(Cc2nc(-c3ccc(OC)cc3)oc2C)C1)c1ccccc1` (centres undefined) as the molecule, how does the Potency read?
Its Potency is inconclusive: 3.66 µM [falling, partial curve, poor fit].

For `Cc1ccc(S(=O)(=O)N2CCN(c3c([N+](=O)[O-])cc(C(F)(F)F)cc3[N+](=O)[O-])CC2)cc1`, which Potency is on record?
The Potency was inconclusive: 1.46 µM [activator, partial curve, poor fit].

For `Cc1noc2ncnc(N3CCCC(C(=O)NCCC(C)C)C3)c12` (centres undefined), which Potency is on record?
Its Potency is “inactive”.

Which Potency does the source give for `COc1cc(NC(=O)c2cc(-c3ccccc3)nc3c2cnn3C(C)C)cc(OC)c1OC` here?
The Potency was inconclusive: 23.1 µM [falling, partial curve, poor fit].

With `CC1=C(C(=O)OCc2ccccc2)C(c2cccc(Br)c2)NC(=O)N1` (centres undefined) as the molecule, how does the Potency read?
The Potency was “inactive”.

With `CCOc1ccc(-c2nnc3ccc(SCC(=O)Nc4nc5ccccc5s4)nn23)cc1` as the molecule, how does the Potency read?
The Potency was “inactive”.

Which Potency does the source give for `CSc1cccc(NC(=S)NC(=O)c2cccnc2)c1` here?
The Potency was inconclusive: 18.4 µM [activator, partial curve, poor fit].

For `COc1ccc(/C=N/NC(=O)NC23CC4CC(CC(C4)C2)C3)c(OC)c1`, which Potency is on record?
The Potency was “inactive”.

With `Cc1nc(NC(=O)CSc2ccccc2N)sc1C` as the molecule, how does the Potency read?
The Potency was “inactive”.

With `CCCCCOc1ccc(C2C(C(=O)c3ccc(C)o3)=C(O)C(=O)N2c2cc(C)on2)cc1` (centres undefined) as the molecule, how does the Potency read?
The Potency was inconclusive: 14.6 µM [falling, partial curve].

Which Potency does the source give for `O=C(NC1CCCCC1)Sc1ccc(Cl)cc1` here?
The Potency was “inactive”.

For `CCc1ccc(Nc2nc(N3CCOCC3)nc(N3CCOCC3)n2)cc1`, which Potency is on record?
Its Potency is inconclusive: 5.17 µM [activator, full curve].

For `COc1cccc(C2CN(c3ccc(F)cc3F)N=C2c2cccs2)c1OC` (centres undefined), which Potency is on record?
The Potency was inconclusive: 11.6 µM [activator, partial curve, poor fit].

Which Potency does the source give for `O=C(O)CCNc1cc(N2CCN(C(=O)c3ccco3)CC2)c2noc3c2c1C(=O)c1ccccc1-3` here?
Its Potency is active: 18.4 µM.

Which Potency does the source give for `Cc1ccc(NS(=O)(=O)c2ccc(-c3cnc(C4CC4)o3)cc2)cc1` here?
Its Potency is “inactive”.

For `O=S(=O)(c1ccc2ncsc2c1)N1CCN(c2nc(-c3cccs3)nc3ccccc23)CC1`, which Potency is on record?
Its Potency is “inactive”.

Which Potency does the source give for `CC(C)(C)NC(=O)C12CC3CC(CC(Cl)(C3)C1)C2` here?
The Potency was “inactive”.

With `CCCCn1nc(C(=O)N[C@@H](CCSC)c2nc3ccccc3[nH]2)c2ccccc2c1=O` as the molecule, how does the Potency read?
The Potency was inconclusive: 32.6 µM [falling, partial curve, poor fit].

Which Potency does the source give for `CC(C)CC(COCc1ccc(Cl)cc1)N1CCN(C(=O)c2ccc(C(F)(F)F)cc2)CCC1=O` (centres undefined) here?
The Potency was inconclusive: 29.1 µM [falling, single point].

Which Potency does the source give for `O=C(Cc1cccs1)NCCc1ccc(F)cc1` here?
Its Potency is “inactive”.

Which Potency does the source give for `COc1ccccc1N(CC(=O)NCCSCc1cccc(C)c1)S(=O)(=O)c1ccccc1` here?
Its Potency is inconclusive: 29.1 µM [falling, single point].

For `COCCCNC(=O)c1cc2c(=O)n3cccc(C)c3nc2n(C(C)C)c1=N`, which Potency is on record?
The Potency was inconclusive: 20.6 µM [activator, partial curve].

For `CCOc1cccc(/C=C2\NC(=S)N(c3ccccc3)C2=O)c1O`, which Potency is on record?
The Potency was “inactive”.
